Measured values as given in PubChem BioAssay AID2685 (National Center for Advancing Translational Sciences (NCATS), 2010).
The campaign covered roughly 320,000 compounds. About 2,100 (0.66%) were called active. This list was built around the results that the source calls inconclusive (neither active nor inactive); the mix of calls is not that of the screen. Calls come from the whole dose curve; as a rule, active = well fitted inhibition curve with a large enough effect in the signal ratio, with a control signal flat (not every such curve was filed as active); inconclusive = small, poorly fitted or top-dose-only effect, or effect the other way, or a change in a side signal; inactive = flat fitted curve, though single readings scatter; the % refers to the signal ratio. Potencies beside an inconclusive call are fits to weak or partial responses and may not hold up.
% is set by controls: 0 for no effect and ±100 for the full control effect; potency is the fitted concentration of half-maximal effect.

Assay: qHTS Assay for Lipid Storage Modulators in Drosophila S3 Cells
Details: BODIPY lipid droplet fluorescence, 18-24 h, cells fed with added oleic acid; lipid storage change, negative = inhibition: at 46.1 µM (top of the series) unless noted
In short: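 Drosophila S3 cells got compounds at several concentrations plus oleic acid (400 uM solution). Laser-scanning cytometry with 488 nm excitation read lipid droplets at 500-530 nm and cells at 575-640 nm. Percent activity was relative to 20 uM Triacsin C.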
In the case of `O=C(NCc1ccccc1CN1CCCC1)c1ccc(OCc2cscn2)cc1`, the lipid storage change, negative = inhibition is reported as inconclusive: -12.8%.
In the case of `COc1ccc(OCC(O)Cn2c(N3CCCCC3)nc3c2c(=O)[nH]c(=O)n3C)cc1` (stereo not drawn), the Potency is reported as inconclusive: 29.1 µM [falling, single point].
For `Fc1cc2nc(-c3ccncc3)[nH]c2cc1F`, the lipid storage change, negative = inhibition was inconclusive: -17.7%.
For `O=S(=O)(c1ccc(Cl)cc1)n1cnc2ccccc21`, the Potency was inconclusive: 0.58 µM [activator, partial curve, poor fit].
For `CCC(=O)N1N=C(c2ccccc2)CC1c1ccccc1` (stereo not drawn), the lipid storage change, negative = inhibition was inconclusive: 23.2%.
For `COc1cc(/C=N/NC(N)=O)ccc1OC(=O)c1cccs1`, the lipid storage change, negative = inhibition was inconclusive: -92%.
For `Cc1noc(C)c1COc1ccc(C(=O)N2CCN(c3ccccn3)CC2)cc1`, the lipid storage change, negative = inhibition was inconclusive: 31.1%.
For `Cc1ccc(NC(=O)CCn2c(=O)c3cccn3c3ccccc32)cc1C`, the Potency was inconclusive: 29.1 µM [falling, single point].
With `CCn1nc(NC(=O)c2cccnc2)c2cc3ccccc3nc21` the Potency was inconclusive: 5.17 µM [rising, partial curve].
For `Cc1cccc(OCc2nnc(SCC(=O)Nc3sc(C)c(C)c3C#N)n2C)c1`, the lipid storage change, negative = inhibition was inconclusive: -1.71%.
For `COc1ccccc1C(=O)Nc1ccc(S(=O)(=O)NC2=NCCCCC2)cc1`, the lipid storage change, negative = inhibition was inconclusive: -4.59%.
For `COc1ccc2c(c1)C(SCC(=O)NCc1ccccc1)CC(C)(C)O2` (stereo not drawn), the lipid storage change, negative = inhibition was inconclusive: -15.4%.
In the case of `CC(C)c1nnc(SCC(=O)NCc2ccco2)n1C`, the lipid storage change, negative = inhibition is reported as inconclusive: -96.3%.
In the case of `COc1cc(C)ccc1OCCOCCOc1ccc([N+](=O)[O-])cc1`, the Potency is reported as inconclusive: 29.1 µM [rising, single point].
With `Cc1ccc(NC(=O)c2nc[nH]c2C(=O)NCC(=O)OC(C)(C)C)cc1` the lipid storage change, negative = inhibition was inconclusive: 0.242%.
With `NC(=O)c1ccc(NC(=O)COC(=O)CCCN2C(=O)c3cccc4cccc(c34)C2=O)cc1` the lipid storage change, negative = inhibition was inconclusive: 4.62%.
With `CC1CCc2c(sc(NC(=O)c3ccc(Cn4cc([N+](=O)[O-])cn4)o3)c2C#N)C1` (stereo not drawn) the Potency was inconclusive: 23.1 µM [falling, single point].
In the case of `COc1ccc(NC(=O)C(=O)NCCN2CCN(C(=O)c3ccc(C)cc3)CC2)cc1`, the lipid storage change, negative = inhibition is reported as inconclusive: 205%.
In the case of `CN(C(=O)Cn1c(Cl)nc2c1c(=O)n(C)c(=O)n2C)C1CCS(=O)(=O)C1` (stereo not drawn), the lipid storage change, negative = inhibition is reported as inconclusive: 1.73%.
For `O=C(CSc1ccc(F)cc1)Nc1ccc(N2CCOCC2)cc1`, the Potency was inconclusive: 11.6 µM [activator, partial curve].
In the case of `COCCNC(=O)C(c1ccc(C)cc1)N(C(=O)C(=O)NC1CCCC1)c1ccc2c(c1)OCCO2` (stereo not drawn), the lipid storage change, negative = inhibition is reported as inconclusive: 24.2%.
For `O=C(CSc1nc2c(c(=O)n1-c1ccc(Cl)cc1)SCC2)NCc1ccco1`, the lipid storage change, negative = inhibition was inconclusive: 17.6%.
In the case of `COC(=O)c1ccc(N2CCC(C)CC2)c(N)c1`, the Potency is reported as inconclusive: 7.31 µM [rising, partial curve, poor fit].
For `Cc1cc(Cl)c2oc(C(=O)N(CCO)Cc3ccccc3)c(C)c2c1`, the Potency was inconclusive: 6.51 µM [activator, single point].
For `COc1cc(N)c(Cl)cc1C(=O)OCC(=O)N(C)C1CCCCC1`, the lipid storage change, negative = inhibition was inconclusive: 9.22%.
With `O=c1cc(N2CCC3(CC2)OCCO3)[nH]c(=O)n1-c1ccc(Cl)cc1` the lipid storage change, negative = inhibition was inconclusive: -2.66%.
For `Cc1ccc(-n2cc(C(=O)c3ccc(F)cc3)nn2)cc1Cl`, the lipid storage change, negative = inhibition was inconclusive: -139%.
In the case of `CC(=O)Nc1ccccc1NC(=O)C/C(C)=N/NC(=O)Cc1cccc2ccccc12`, the Potency is reported as inconclusive: 29.1 µM [falling, single point].
For `CCC(c1nc2ccccc2c(=O)n1-c1nc2ccccc2s1)N1C(=O)c2ccccc2C1=O` (stereo not drawn), the lipid storage change, negative = inhibition was inconclusive: 25.3%.
For `COc1ccc(S(=O)(=O)Nc2ccccc2C(=O)Nc2nc(-c3ccc(F)cc3)cs2)cc1OC`, the lipid storage change, negative = inhibition was inconclusive: -26.9%.
For `CCOc1cccc(OCCOc2ccc(C(=O)c3ccccc3)cc2)c1`, the lipid storage change, negative = inhibition was inconclusive: 15.6%.
For `Cc1cc(C)n(C(=O)CNC(=O)Cc2ccccc2)n1`, the lipid storage change, negative = inhibition was inconclusive: 14.2%.
In the case of `O=C1CN(CC(=O)N2CCCCC2)c2ccccc2O1`, the lipid storage change, negative = inhibition is reported as inconclusive: 15.1%.
For `COc1ccc(NC(=O)C2CCCN2C(=O)OC(C)(C)C)cc1` (stereo not drawn), the lipid storage change, negative = inhibition was inconclusive: 0.198%.
In the case of `CC(=O)N1CCN(c2ccc(NC(=O)c3ccc([N+](=O)[O-])cc3Cl)cc2)CC1`, the lipid storage change, negative = inhibition is reported as inconclusive: 24.6%.
For `CCO/C=C/C(O)(CNC(=O)COc1ccccc1F)C(F)(F)F` (stereo not drawn), the lipid storage change, negative = inhibition was inconclusive: -2.62%.
In the case of `Cc1cc(-c2nc3ncccc3o2)ccc1NC(=S)NC(=O)C(C)C`, the lipid storage change, negative = inhibition is reported as inconclusive: -4.98%.
With `O=C(COc1cccc(F)c1)Nc1nc(-c2ccncc2)cs1` the lipid storage change, negative = inhibition was inconclusive: 20.8%.
With `CC1(C(=O)O)CCC(C(=O)Nc2ccc(F)cc2)C1(C)C` (stereo not drawn) the lipid storage change, negative = inhibition was inconclusive: -31.5%.
With `CC(=O)Nc1ccc(OCCOc2ccc([N+](=O)[O-])cc2)cc1` the lipid storage change, negative = inhibition was inconclusive: 16.4%.
With `O=C(c1cccc(F)c1)N1CCCc2ccccc21` the Potency was inconclusive: 5.17 µM [activator, partial curve, poor fit].
For `COc1ccc(NC(=O)CC2Oc3ccc(C)cc3NC2=O)cc1` (stereo not drawn), the Potency was inconclusive: 29.1 µM [activator, partial curve, poor fit].
With `CC(=O)OCC(=O)[C@@]1(O)CC[C@H]2[C@@H]3CCC4=CC(=O)CC[C@]4(C)[C@H]3[C@@H](O)C[C@@]21C` the lipid storage change, negative = inhibition was inconclusive: 11.5%.
With `CCOc1ccc(NC(=O)CSc2ncn[nH]2)cc1` the Potency was inconclusive: 0.651 µM [activator, full curve, poor fit].
With `Oc1c(Cl)cc(Cl)cc1C1=NNC(c2ccc(Cl)cc2)C1` (stereo not drawn) the lipid storage change, negative = inhibition was inconclusive: -18.9%.
For `CCOc1ccc(N2CC(C(=O)N3CCCc4ccccc43)CC2=O)cc1` (stereo not drawn), the Potency was inconclusive: 20.6 µM [falling, partial curve, poor fit].
With `CCc1ccccc1OCC(=O)Nc1ccc2c(c1)OCCO2` the Potency was inconclusive: 20.6 µM [activator, single point].
For `COC(=O)c1sccc1NC(=O)c1cc(OC)cc(OC)c1`, the lipid storage change, negative = inhibition was inconclusive: -10.3%.
For `CC(C)(C)C(=O)/C=c1\[nH]c(=O)/c(=C\c2ccccc2F)s1`, the lipid storage change, negative = inhibition was inconclusive: 21.6%.
With `O=S(=O)(c1ccc2ccccc2c1)N1CCN(CCO)CC1` the lipid storage change, negative = inhibition was inconclusive: 7.93%.
With `Cc1cc2c(N)cccc2nn1` the Potency was inconclusive: 3.66 µM [falling, single point].
For `COc1cccc(C(=O)OCc2cc(=O)oc3c(C)c(C)ccc23)c1OC`, the lipid storage change, negative = inhibition was inconclusive: -1.18%.
With `O=C(OCC(=O)N(C1CCCCC1)C1CCCCC1)c1ccco1` the lipid storage change, negative = inhibition was inconclusive: -4.04%.
In the case of `CN(C)c1ccc(/C=N/NC(=O)c2nonc2N)cc1[N+](=O)[O-]`, the lipid storage change, negative = inhibition is reported as inconclusive: 42.3%.
With `COc1ccc(OC)c(NC(=O)c2cnn(-c3ccccc3)c2C)c1` the Potency was inconclusive: 1.46 µM [activator, partial curve].
In the case of `Cn1c(CNC2CCCCC2)nc2ccccc21`, the lipid storage change, negative = inhibition is reported as inconclusive: 11.1%.
With `Cc1ccc(CC(=O)Nc2nc3ccccc3[nH]2)cc1C` the lipid storage change, negative = inhibition was inconclusive: -148%.
In the case of `Cc1ccccc1NC(=O)CN1CCN(C)CC1`, the lipid storage change, negative = inhibition is reported as inconclusive: -68%.
For `Cc1cccc(-n2[nH]c3c4c(ccc3c2=O)C(=O)c2ccccc2C4=O)c1`, the lipid storage change, negative = inhibition was inconclusive: -18.9%.
With `NCCCCCc1nnc(SCC(=O)Nc2cccc(Cl)c2)o1` the lipid storage change, negative = inhibition was inconclusive: 0.0714%.
In the case of `COc1ccc(CCNC(=O)CSc2nnnn2-c2ccccc2OC)cc1OC`, the lipid storage change, negative = inhibition is reported as inconclusive: -54.1%.
In the case of `CCSc1nnc(NC(=O)C2CC(=O)N(Cc3ccc(C)cc3)C2)s1` (stereo not drawn), the lipid storage change, negative = inhibition is reported as inconclusive: -13.5%.
With `CCCCC(C(=O)O)C(C)CC(=O)Nc1ccn(-c2ccccc2)n1` (stereo not drawn) the lipid storage change, negative = inhibition was inconclusive: -13.6%.
With `CC(=O)C(Cc1ccccc1)NC(=O)CN1CCN(Cc2ccccc2)CC1` (stereo not drawn) the lipid storage change, negative = inhibition was inconclusive: -17.8%.
In the case of `CCOC(=O)CC(=O)NC(CC(=O)OC)c1ccc(C(C)C)cc1` (stereo not drawn), the lipid storage change, negative = inhibition is reported as inconclusive: -27.5%.
For `COc1ccc(-c2nnc3n2N=C(c2cccc(Br)c2)CS3)cc1OC`, the Potency was inconclusive: 0.0041 µM [activator, full curve, poor fit].
For `O=C1C2CCCCN2C(=O)N1CCCCN1CCN(c2cccc(Cl)c2)CC1` (stereo not drawn), the Potency was inconclusive: 11.6 µM [falling, single point].
For `CC1(C)CC(=O)C=C(NC2CCCCCC2)C1`, the Potency was inconclusive: 0.82 µM [activator, full curve].
In the case of `COc1ccc2nc(NC(=O)C34CC5CC(CC(NC(C)=O)(C5)C3)C4)sc2c1`, the lipid storage change, negative = inhibition is reported as inconclusive: -3.92%.
With `O=C(COC(=O)C1CC2CCCC(C1)C2=O)NNC(=O)c1ccccc1Br` (stereo not drawn) the lipid storage change, negative = inhibition was inconclusive: 21.1%.
With `O=C(CCNS(=O)(=O)c1cccc2nsnc12)N1CCN(c2ccccn2)CC1` the Potency was inconclusive: 3.26 µM [rising, partial curve].
With `NS(=O)(=O)c1ccc(NC(=S)Nc2ccc(OCc3ccccc3)cc2)cc1` the lipid storage change, negative = inhibition was inconclusive: -12%.
For `COc1ccc(N2CCCC2)c(NC(=O)c2ccc(Br)o2)c1`, the lipid storage change, negative = inhibition was “inactive”.
With `COc1ccccc1CNC(=O)C1CCN(C(=O)N(C)C)CC1` the lipid storage change, negative = inhibition was inconclusive: -5.69%.
With `CCCCC(CC)CNC(=O)c1ncn[nH]1` (stereo not drawn) the lipid storage change, negative = inhibition was inconclusive: -46.7% [cytotoxic] [at 0.369 µM].
For `CC(=O)Nc1ccc(Nc2ncnc3c2cnn3-c2ccc(C)cc2C)cc1`, the Potency was inconclusive: 14.6 µM [activator, single point].
For `O=C(Cn1cc(S(=O)(=O)Cc2ccccc2)c2ccccc21)N1CCOCC1`, the lipid storage change, negative = inhibition was “inactive”.
In the case of `C=CCOc1c2ccc(C(=O)NCc3ccccc3OC)cc2nn1C`, the Potency is reported as inconclusive: 0.0065 µM [falling, full curve, poor fit].
